This assay addresses T1, signal peptide peptidase (SPP) (human (endogenous in HEK293)) (UniProt Q8TCT9).
T1 sequence: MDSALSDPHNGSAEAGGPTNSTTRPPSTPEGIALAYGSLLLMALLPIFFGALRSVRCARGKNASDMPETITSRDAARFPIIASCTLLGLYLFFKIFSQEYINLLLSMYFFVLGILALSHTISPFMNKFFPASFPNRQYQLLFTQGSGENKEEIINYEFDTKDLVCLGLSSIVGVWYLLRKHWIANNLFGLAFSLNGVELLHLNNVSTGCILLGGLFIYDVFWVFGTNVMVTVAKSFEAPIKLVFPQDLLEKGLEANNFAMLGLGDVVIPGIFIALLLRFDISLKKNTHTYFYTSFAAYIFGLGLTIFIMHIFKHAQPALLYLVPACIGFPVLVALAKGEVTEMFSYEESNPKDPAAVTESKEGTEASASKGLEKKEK
Kind of assay: co-IP; naive HEK293 cells, lysis in 1% CHAPSO, diluted to 0.5% CHAPSO; immunoprecipitation with rabbit polyclonal SPP antibody and Protein G-Sepharose, 4 °C; Western blot; control: nonspecific immunoglobulin. In general terms: A western blot detects proteins with antibodies after separation by electrophoresis.

The results in this text go back to paper PMC3663554.

These are yes or no findings as the source states them, for the method shown. In cells and extracts the contact can be indirect. Binding calls can cover weak binding; strength is not graded here.

For “endogenous presenilin 2, endoproteolytically processed N-terminal fragment (human (endogenous in HEK293)) (domain or fragment)”, the binding entry is on record as “binds”.
